Publication PMC6189197
These are yes or no findings as the source states them, for the method shown. In cells and extracts the contact can be indirect. Some results given as binding are weak or reduced against the parent protein; the word gives no strength.

Amino acid sequences for entries named in this document (tags omitted).
UniProt D3ZBQ1: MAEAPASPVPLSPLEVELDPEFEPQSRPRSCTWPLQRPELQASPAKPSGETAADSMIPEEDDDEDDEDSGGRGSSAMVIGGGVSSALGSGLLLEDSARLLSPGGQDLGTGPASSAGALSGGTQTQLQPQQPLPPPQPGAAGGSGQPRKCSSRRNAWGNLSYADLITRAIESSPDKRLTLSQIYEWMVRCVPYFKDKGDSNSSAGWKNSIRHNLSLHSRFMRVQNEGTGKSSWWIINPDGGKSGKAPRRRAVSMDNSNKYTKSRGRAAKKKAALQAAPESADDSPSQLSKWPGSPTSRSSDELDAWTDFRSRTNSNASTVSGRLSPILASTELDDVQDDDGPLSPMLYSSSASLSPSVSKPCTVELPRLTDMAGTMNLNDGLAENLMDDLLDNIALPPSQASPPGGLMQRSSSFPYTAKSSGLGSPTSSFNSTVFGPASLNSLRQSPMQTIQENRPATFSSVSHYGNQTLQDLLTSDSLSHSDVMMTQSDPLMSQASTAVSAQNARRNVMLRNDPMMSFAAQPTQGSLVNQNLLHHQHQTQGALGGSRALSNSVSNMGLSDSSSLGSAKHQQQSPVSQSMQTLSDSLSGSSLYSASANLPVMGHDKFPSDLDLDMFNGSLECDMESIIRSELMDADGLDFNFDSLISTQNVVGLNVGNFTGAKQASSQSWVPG
UniProt P27008: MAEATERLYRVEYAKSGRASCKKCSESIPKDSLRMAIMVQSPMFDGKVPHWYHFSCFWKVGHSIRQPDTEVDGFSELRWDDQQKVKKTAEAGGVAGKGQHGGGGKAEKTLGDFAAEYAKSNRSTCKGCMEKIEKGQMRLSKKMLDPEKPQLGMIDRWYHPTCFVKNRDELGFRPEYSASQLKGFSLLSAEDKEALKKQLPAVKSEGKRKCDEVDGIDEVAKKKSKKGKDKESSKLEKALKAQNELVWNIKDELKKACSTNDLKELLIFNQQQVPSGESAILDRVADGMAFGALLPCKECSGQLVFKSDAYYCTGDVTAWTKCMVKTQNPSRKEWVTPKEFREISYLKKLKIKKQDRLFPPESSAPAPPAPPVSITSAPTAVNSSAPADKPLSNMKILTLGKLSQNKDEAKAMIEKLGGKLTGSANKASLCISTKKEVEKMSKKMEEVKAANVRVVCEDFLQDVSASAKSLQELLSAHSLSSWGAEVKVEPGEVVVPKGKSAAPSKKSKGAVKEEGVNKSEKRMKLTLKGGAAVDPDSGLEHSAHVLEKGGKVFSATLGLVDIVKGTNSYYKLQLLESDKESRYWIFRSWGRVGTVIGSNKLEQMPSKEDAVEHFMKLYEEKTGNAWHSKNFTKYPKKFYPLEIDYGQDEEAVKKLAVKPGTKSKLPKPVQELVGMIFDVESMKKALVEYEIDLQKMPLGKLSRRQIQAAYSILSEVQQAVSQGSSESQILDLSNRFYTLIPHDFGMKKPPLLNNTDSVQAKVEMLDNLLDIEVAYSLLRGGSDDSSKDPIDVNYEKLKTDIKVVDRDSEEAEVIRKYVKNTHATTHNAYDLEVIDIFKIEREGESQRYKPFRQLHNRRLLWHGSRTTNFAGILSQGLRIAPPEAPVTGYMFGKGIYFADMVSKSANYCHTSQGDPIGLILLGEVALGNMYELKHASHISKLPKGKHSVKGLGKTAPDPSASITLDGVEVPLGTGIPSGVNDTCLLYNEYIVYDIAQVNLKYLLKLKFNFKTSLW

Molecular target: Forkhead box O (FoxO)3a (rat (endogenous in primary neonatal rat cardiomyocytes)) (UniProt D3ZBQ1)
Assay: co-IP; extracted proteins of cardiomyocytes incubated with primary antibody (anti-FoxO3a or PARP1) overnight at 4 °C; magnetic beads for 4 h; washed with RIPA lysis buffer; Western blot

“poly(ADP-ribose) polymerase-1 (from UniProt P27008 1-1014) (enzyme)” was tested, and the binding was “binds”.
